By UniProt entry, the sequences of proteins in these tests, tags left out. Where a name states a change or a piece, a line headed by the entry shows the natural chain unless it says otherwise.
UniProt P36542: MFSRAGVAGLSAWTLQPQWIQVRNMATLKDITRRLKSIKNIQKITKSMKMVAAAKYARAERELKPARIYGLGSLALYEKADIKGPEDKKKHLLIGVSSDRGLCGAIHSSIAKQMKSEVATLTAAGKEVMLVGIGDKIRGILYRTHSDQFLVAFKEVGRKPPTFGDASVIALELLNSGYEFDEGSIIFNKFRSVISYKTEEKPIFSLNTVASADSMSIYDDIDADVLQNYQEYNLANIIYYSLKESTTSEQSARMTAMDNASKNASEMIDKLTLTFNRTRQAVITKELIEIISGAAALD
UniProt Q12981: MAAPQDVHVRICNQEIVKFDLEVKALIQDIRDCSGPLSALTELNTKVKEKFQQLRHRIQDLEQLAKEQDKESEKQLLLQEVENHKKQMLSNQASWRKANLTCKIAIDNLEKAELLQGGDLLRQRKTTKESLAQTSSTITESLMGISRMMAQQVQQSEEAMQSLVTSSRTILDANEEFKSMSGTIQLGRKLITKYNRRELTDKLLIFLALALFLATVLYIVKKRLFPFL
UniProt P18850: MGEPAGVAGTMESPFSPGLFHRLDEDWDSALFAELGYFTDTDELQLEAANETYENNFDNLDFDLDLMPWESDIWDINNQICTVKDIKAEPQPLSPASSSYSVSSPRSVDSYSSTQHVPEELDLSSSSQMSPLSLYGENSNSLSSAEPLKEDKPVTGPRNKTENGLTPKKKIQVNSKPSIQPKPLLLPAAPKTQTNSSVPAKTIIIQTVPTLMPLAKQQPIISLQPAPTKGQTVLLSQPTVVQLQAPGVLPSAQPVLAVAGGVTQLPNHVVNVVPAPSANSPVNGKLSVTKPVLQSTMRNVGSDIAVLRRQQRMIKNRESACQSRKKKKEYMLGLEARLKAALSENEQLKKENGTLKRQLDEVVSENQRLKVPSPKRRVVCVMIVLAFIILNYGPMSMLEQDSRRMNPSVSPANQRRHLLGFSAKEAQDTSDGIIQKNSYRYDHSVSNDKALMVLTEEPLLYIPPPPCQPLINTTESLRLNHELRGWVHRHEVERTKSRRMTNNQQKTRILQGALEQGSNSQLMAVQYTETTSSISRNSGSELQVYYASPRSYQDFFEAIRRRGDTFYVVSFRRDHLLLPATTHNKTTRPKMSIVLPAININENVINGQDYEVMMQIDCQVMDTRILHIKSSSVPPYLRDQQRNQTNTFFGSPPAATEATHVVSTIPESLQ
UniProt Q96C57: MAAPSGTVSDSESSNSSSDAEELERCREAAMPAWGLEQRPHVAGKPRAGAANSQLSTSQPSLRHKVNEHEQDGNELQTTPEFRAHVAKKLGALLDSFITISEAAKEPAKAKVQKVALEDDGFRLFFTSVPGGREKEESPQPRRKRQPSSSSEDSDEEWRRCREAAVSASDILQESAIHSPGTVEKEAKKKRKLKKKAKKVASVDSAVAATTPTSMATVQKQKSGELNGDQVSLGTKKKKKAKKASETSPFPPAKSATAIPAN
UniProt Q96DT6: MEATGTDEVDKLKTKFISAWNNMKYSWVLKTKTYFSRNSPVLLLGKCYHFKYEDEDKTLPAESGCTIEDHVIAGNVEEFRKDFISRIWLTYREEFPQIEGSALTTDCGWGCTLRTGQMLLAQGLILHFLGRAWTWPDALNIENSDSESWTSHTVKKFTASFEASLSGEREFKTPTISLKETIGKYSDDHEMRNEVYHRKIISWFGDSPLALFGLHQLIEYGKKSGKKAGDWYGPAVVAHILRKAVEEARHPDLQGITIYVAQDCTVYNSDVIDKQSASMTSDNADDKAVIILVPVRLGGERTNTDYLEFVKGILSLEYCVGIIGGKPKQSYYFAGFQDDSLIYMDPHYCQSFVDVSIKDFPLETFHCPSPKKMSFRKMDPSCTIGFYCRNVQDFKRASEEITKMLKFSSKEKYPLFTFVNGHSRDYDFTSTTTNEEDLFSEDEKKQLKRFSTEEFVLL
UniProt Q8WXE1: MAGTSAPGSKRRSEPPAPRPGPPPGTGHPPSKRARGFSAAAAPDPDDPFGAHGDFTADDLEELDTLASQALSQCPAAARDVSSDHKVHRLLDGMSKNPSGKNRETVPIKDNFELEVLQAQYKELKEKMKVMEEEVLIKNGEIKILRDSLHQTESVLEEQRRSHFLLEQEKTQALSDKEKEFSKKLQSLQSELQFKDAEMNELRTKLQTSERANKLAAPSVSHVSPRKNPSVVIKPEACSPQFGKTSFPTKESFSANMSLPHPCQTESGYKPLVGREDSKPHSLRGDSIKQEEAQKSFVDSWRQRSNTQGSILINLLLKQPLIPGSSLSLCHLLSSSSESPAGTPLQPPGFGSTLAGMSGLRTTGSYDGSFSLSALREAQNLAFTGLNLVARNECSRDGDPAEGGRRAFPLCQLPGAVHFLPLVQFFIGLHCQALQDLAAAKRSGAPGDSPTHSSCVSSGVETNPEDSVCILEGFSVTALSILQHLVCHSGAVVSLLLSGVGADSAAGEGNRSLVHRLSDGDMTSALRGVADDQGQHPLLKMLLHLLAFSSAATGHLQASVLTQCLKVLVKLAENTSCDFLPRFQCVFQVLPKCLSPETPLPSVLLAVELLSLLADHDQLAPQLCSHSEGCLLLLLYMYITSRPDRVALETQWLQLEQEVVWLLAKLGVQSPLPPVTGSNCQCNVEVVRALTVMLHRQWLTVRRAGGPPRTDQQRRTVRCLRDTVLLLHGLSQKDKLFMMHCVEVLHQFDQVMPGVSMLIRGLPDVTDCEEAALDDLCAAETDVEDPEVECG
UniProt P78537: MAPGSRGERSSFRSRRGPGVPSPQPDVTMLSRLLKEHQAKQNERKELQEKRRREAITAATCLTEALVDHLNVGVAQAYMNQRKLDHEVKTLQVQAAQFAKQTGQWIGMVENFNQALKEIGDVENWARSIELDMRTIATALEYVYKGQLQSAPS
UniProt Q3B7T1: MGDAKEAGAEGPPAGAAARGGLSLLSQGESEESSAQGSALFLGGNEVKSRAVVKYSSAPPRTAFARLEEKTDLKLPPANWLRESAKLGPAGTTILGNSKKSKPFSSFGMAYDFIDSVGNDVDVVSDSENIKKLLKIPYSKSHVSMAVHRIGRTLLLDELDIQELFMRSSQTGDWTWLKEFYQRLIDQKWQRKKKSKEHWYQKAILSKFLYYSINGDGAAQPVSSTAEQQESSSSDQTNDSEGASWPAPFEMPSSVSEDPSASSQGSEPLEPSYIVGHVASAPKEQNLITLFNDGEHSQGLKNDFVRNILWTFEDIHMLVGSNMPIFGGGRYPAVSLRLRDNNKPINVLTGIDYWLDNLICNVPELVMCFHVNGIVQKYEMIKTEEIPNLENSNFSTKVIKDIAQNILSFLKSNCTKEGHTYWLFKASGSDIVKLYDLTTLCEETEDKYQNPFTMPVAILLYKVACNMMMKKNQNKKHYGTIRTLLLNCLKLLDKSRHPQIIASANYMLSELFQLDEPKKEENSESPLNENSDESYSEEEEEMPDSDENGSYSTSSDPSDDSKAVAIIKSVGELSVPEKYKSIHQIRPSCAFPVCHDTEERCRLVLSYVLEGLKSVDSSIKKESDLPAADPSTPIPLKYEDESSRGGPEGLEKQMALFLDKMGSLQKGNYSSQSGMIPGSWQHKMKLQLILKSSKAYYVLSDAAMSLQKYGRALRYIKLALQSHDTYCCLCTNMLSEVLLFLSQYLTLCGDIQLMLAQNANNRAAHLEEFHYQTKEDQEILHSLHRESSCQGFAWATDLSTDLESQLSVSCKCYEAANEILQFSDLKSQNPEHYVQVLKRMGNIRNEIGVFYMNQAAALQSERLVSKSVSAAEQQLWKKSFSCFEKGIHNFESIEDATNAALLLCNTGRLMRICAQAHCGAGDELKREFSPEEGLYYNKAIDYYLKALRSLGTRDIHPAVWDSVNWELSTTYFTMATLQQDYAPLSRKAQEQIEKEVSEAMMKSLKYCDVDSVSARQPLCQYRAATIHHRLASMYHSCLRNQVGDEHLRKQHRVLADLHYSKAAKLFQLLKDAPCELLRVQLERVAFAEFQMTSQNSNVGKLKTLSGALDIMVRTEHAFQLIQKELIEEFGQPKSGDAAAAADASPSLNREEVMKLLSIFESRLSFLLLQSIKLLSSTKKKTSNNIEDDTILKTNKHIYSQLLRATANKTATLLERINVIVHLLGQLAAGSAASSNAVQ
UniProt P18846: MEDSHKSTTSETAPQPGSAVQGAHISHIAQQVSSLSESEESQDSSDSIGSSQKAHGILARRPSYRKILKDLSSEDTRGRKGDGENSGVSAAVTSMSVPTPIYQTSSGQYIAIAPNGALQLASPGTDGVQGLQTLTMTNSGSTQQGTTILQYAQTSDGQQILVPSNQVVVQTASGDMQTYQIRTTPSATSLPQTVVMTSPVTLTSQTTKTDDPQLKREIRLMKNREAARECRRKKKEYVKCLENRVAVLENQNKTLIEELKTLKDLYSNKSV
UniProt Q7Z3E2: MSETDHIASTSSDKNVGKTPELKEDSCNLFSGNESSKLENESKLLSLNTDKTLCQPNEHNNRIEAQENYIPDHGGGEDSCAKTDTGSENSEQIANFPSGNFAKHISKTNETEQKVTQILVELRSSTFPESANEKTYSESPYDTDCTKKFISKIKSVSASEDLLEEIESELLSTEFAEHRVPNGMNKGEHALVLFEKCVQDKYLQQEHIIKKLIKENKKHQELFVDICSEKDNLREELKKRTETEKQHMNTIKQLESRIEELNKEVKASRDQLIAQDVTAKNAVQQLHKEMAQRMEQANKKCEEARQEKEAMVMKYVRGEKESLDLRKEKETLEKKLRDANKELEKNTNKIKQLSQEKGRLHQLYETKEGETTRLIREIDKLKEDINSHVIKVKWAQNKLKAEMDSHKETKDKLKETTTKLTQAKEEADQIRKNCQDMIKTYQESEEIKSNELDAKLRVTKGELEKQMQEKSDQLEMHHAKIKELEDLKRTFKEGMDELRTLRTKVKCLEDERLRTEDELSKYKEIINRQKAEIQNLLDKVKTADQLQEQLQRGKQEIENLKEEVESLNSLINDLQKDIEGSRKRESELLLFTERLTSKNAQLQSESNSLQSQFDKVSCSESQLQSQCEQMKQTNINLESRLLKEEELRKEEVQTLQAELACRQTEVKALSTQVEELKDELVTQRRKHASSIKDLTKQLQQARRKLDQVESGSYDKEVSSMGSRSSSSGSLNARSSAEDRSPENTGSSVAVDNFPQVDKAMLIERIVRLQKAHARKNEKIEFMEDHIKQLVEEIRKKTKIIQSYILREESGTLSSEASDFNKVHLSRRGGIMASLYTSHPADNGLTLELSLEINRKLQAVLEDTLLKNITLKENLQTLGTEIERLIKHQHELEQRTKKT
UniProt Q8N999, whole entry: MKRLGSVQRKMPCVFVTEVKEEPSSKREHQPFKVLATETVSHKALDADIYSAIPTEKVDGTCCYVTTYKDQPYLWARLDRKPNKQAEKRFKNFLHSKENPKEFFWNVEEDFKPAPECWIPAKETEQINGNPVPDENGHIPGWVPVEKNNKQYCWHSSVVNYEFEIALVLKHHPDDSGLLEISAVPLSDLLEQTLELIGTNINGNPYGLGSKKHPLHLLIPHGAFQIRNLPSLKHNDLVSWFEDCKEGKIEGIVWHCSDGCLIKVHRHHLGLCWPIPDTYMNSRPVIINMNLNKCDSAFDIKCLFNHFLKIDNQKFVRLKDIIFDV
UniProt P21281, whole entry: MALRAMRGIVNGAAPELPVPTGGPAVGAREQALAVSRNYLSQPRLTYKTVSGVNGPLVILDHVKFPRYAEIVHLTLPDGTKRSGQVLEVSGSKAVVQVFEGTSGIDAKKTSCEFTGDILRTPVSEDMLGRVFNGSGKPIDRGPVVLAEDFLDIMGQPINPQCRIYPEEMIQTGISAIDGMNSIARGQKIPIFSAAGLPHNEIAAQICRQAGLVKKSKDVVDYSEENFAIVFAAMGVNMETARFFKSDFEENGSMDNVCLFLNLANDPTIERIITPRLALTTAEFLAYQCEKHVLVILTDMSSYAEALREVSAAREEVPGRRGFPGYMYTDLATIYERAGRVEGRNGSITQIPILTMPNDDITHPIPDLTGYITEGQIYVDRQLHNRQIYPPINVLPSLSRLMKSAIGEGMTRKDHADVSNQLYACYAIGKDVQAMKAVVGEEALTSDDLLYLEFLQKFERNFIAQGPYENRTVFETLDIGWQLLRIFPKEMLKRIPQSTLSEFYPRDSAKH
UniProt Q13895: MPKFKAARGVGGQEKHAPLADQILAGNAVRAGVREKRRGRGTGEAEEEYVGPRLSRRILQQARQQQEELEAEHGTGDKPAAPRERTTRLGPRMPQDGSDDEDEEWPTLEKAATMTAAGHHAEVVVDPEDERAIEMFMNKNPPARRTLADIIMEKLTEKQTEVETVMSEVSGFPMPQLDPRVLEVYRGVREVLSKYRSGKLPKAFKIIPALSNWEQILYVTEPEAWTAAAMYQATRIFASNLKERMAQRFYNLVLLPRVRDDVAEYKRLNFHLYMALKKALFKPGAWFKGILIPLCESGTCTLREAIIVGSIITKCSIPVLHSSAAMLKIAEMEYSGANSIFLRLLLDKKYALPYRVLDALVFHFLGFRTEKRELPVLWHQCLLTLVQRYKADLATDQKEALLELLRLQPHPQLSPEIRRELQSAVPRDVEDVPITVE

This is one part of the list.
Each target was assayed with COc1ccc(Cn2ccc3ccc(C(=O)NO)cc32)cc1 (assay: dose-dependent thermal stabilisation call (2D-TPP, DLPTP, 10% FDR) (binary (1 = stabilised)); higher = stabilised by the compound). Conditions: system: HL-60 intact cells; concentration range 0.04-10 µM.
In the case of ATP5C1 (UniProt P36542), the “dose-dependent thermal stabilisation call” value is reported as inactive: 0.
For ATAD3B (UniProt Q5T9A4), the “dose-dependent thermal stabilisation call” value was inactive: 0.
With ASCC2 (UniProt Q9H1I8) the “dose-dependent thermal stabilisation call” value was inactive: 0.
With ATAD1 (UniProt Q8NBU5) the “dose-dependent thermal stabilisation call” value was inactive: 0.
With BAT2L (UniProt Q5JSZ5) the “dose-dependent thermal stabilisation call” value was inactive: 0.
BPTF (UniProt Q12830) was tested, and the “dose-dependent thermal stabilisation call” value was inactive: 0.
With BNIP1 (UniProt Q12981) the “dose-dependent thermal stabilisation call” value was inactive: 0.
With ASPM (UniProt Q8IZT6) the “dose-dependent thermal stabilisation call” value was inactive: 0.
BLOC1S3 (UniProt Q6QNY0) was tested, and the “dose-dependent thermal stabilisation call” value was inactive: 0.
In the case of ATF6 (UniProt P18850), the “dose-dependent thermal stabilisation call” value is reported as inactive: 0.
In the case of ATP5B (UniProt P06576), the “dose-dependent thermal stabilisation call” value is reported as inactive: 0.
For BRD2 (UniProt P25440), the “dose-dependent thermal stabilisation call” value was inactive: 0.
C12ORF43 (UniProt Q96C57) was tested, and the “dose-dependent thermal stabilisation call” value was inactive: 0.
In the case of BTF3 (UniProt P20290), the “dose-dependent thermal stabilisation call” value is reported as inactive: 0.
For ATG4C (UniProt Q96DT6), the “dose-dependent thermal stabilisation call” value was inactive: 0.
With BTF3L4 (UniProt Q96K17) the “dose-dependent thermal stabilisation call” value was inactive: 0.
For BOP1 (UniProt Q14137), the “dose-dependent thermal stabilisation call” value was inactive: 0.
In the case of ATP5I (UniProt P56385), the “dose-dependent thermal stabilisation call” value is reported as inactive: 0.
ATRIP (UniProt Q8WXE1) was tested, and the “dose-dependent thermal stabilisation call” value was inactive: 0.
For BAT2D1 (UniProt Q9Y520), the “dose-dependent thermal stabilisation call” value was inactive: 0.
With BLOC1S1 (UniProt P78537) the “dose-dependent thermal stabilisation call” value was inactive: 0.
In the case of BRCA2 (UniProt P51587), the “dose-dependent thermal stabilisation call” value is reported as inactive: 0.
In the case of ATOX1 (UniProt O00244), the “dose-dependent thermal stabilisation call” value is reported as inactive: 0.
With C10ORF137 (UniProt Q3B7T1) the “dose-dependent thermal stabilisation call” value was inactive: 0.
For C11ORF67 (UniProt Q9H7C9), the “dose-dependent thermal stabilisation call” value was inactive: 0.
With ATF1 (UniProt P18846) the “dose-dependent thermal stabilisation call” value was inactive: 0.
With BECN1 (UniProt Q14457) the “dose-dependent thermal stabilisation call” value was inactive: 0.
In the case of BAK1 (UniProt Q16611), the “dose-dependent thermal stabilisation call” value is reported as inactive: 0.
In the case of ASS1 (UniProt P00966), the “dose-dependent thermal stabilisation call” value is reported as inactive: 0.
For ARPC1B (UniProt O15143), the “dose-dependent thermal stabilisation call” value was inactive: 0.
With C10ORF118 (UniProt Q7Z3E2) the “dose-dependent thermal stabilisation call” value was inactive: 0.
In the case of C12ORF29 (UniProt Q8N999), the “dose-dependent thermal stabilisation call” value is reported as inactive: 0.
With BRIP1 (UniProt Q9BX63) the “dose-dependent thermal stabilisation call” value was inactive: 0.
With ARMC7 (UniProt Q9H6L4) the “dose-dependent thermal stabilisation call” value was inactive: 0.
BRCC3 (UniProt P46736) was tested, and the “dose-dependent thermal stabilisation call” value was inactive: 0.
BMP2K (UniProt Q9NSY1) was tested, and the “dose-dependent thermal stabilisation call” value was inactive: 0.
ATP6V1B2 (UniProt P21281) was tested, and the “dose-dependent thermal stabilisation call” value was inactive: 0.
With BYSL (UniProt Q13895) the “dose-dependent thermal stabilisation call” value was inactive: 0.

Source: the supplement of paper PMC7666118
